PubChem BioAssay AID2685 (National Center for Advancing Translational Sciences (NCATS), 2010)
The other results are listed elsewhere or left out. Further columns of the screen follow, without active or inactive calls. Compounds called inactive in the main read-out are mostly missing here. Words in brackets tell the shape of the fitted curve; partial curves, single points and poor fits give uncertain potencies.

Experiment: qHTS Assay for Lipid Storage Modulators in Drosophila S3 Cells;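 for cell number change: cells counted by Cell Tracker Red CMTPX staining in the red channel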
Conditions: BODIPY lipid droplet fluorescence, 18-24 h; for cell number change: measured here: cell count max response, cells fed with added oleic acid
In short: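 Drosophila S3 cells loaded with oleic acid (400 uM, as added) and compounds at several concentrations; lipid droplets imaged by 488-nm laser-scanning cytometry, 500–530 nm intensity and object ratio to cell channel. Percent activity normalized to 20 uM Triacsin C.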

[1] = measured here: lipid fluorescence (Fed channel) AC50, cells fed with added oleic acid
[2] = measured here: cell number channel AC50, cells fed with added oleic acid

SMILES | cell number change [%] | AC50 [1] | AC50 [2]
O=C(c1cc(Cl)ccc1Cl)N1CCc2ccccc21 | 15.1 | 29.1 µM [rising, single point] | 
Cc1ccc(/C=N/N2CCN(c3ccncc3S(=O)(=O)N3CCCCC3)CC2)cc1 | 14.9 | 0.58 µM [falling, partial curve, poor fit] | 
N#C/C(=C\c1ccc(F)cc1)c1nc(-c2ccco2)cs1 | -47.9 | 2.31 µM [falling, partial curve] | 3.66 µM [falling, full curve]
O=C(O)C(Cc1c[nH]c2ccccc12)NS(=O)(=O)c1ccc(Cl)c(C(F)(F)F)c1 (stereo not drawn) | -5.56 |  | 
C/C(=N\NC(=O)Cc1cccc2ccccc12)c1ccncc1 | 3.7 | 2.59 µM [rising, partial curve] | 
CC1=[N+](C)c2ccc3ccccc3c2C1(C)C | -49 | 2.59 µM [falling, full curve] | 29.1 µM [falling, single point]
O=C(O)Cn1ncc2c1-c1ccoc1CC2 | 25.8 |  | 
Cc1cc(Cl)ccc1NC(=S)NCc1ccccc1 |  |  | 0.411 µM [rising, single point]
CCOC(=O)C1=C(C)NC(=O)NC1/C(C)=C/c1ccccc1 (stereo not drawn) | -6.72 | 29.1 µM [rising, single point] | 
Cn1c(SCc2nc3ccccc3[nH]2)nnc1-c1cccnc1 | -6.47 |  | 
N#C/C(=C/c1ccc(N2CCCCCC2)o1)c1ccc(Cl)cc1 | -56.7 | 4.61 µM [falling, full curve, poor fit] | 18.4 µM [falling, single point]
O=C(NCCCc1ccccc1)c1ccc(F)cc1 | -0.794 | 3.66 µM [falling, single point] | 
O=C(c1cccc(S(=O)(=O)N2CCN(c3ccccc3)CC2)c1)N1CCCC(C(F)(F)F)C1 (stereo not drawn) | -75 |  | 1.46 µM [rising, partial curve]
S=C(NCCCN1CCOCC1)Nc1ccc(N2CCOCC2)cc1 | -55.5 | 4.11 µM [falling, full curve] | 4.61 µM [falling, full curve, poor fit]
O=[N+]([O-])c1ccc(C=Nc2ccc(Cl)c([N+](=O)[O-])c2)s1 | -56.8 | 23.1 µM [falling, partial curve] | 32.6 µM [falling, single point]
COc1ccccc1NC(=O)Nc1ncccc1C | -8.9 | 25.9 µM [falling, single point] | 
O=C(NCc1cccnc1)c1cc2nc(-c3cccs3)cc(C(F)(F)Cl)n2n1 | 48.2 | 0.82 µM [rising, full curve] | 1.64 µM [rising, partial curve]
C/C(=N\OCC(=O)OCC(=O)NCc1ccccc1)c1ccc2c(c1)OCO2 | -14.1 |  | 0.146 µM [falling, full curve, poor fit]
CCOC(=O)C1=C(C)Nc2ncnn2C1c1ccc2c(c1)OCO2 (stereo not drawn) | -7.66 | 29.1 µM [rising, single point] | 
O=C(NC(=O)c1ccccc1F)Nc1nc(-c2cccs2)cc(C(F)(F)F)n1 |  | 0.0366 µM [falling, full curve] | 0.366 µM [falling, full curve]
O=C(NC1=NCCS1)c1ccc2c(c1)C(=O)N(Cc1ccco1)C2=O | -3.28 | 29.1 µM [rising, single point] | 
O=C(NN=C1CCCCCC1)c1ccc(Br)o1 | -50.3 |  | 29.1 µM [falling, single point]
COc1cc(/C=C/c2cc[n+](C)cc2)ccc1OCC(=O)Nc1ccc(Cl)c(Cl)c1 | 65.4 | 18.4 µM [falling, partial curve, poor fit] | 18.4 µM [rising, single point]
COc1ccccc1NC(=O)CN1CCN(CC(=O)Nc2ccc3c(c2)OCCO3)CC1 | 20.1 | 13 µM [rising, partial curve] | 

A portion of the results above, as a working copy:
SMILES | cell number change [%] | AC50 [1] | AC50 [2]
O=C(NN=C1CCCCCC1)c1ccc(Br)o1 | -50.3 |  | 29.1 µM [falling, single point]
COc1cc(/C=C/c2cc[n+](C)cc2)ccc1OCC(=O)Nc1ccc(Cl)c(Cl)c1 | 65.4 | 18.4 µM [falling, partial curve, poor fit] | 18.4 µM [rising, single point]
COc1ccccc1NC(=O)CN1CCN(CC(=O)Nc2ccc3c(c2)OCCO3)CC1 | 20.1 | 13 µM [rising, partial curve] | 

Going on with the list.

SMILES | cell number change [%] | AC50 [1] | AC50 [2]
CCCNc1c(NS(=O)(=O)c2ccc(C3CCCCC3)cc2)c(=O)oc2ccccc12 | -11.9 | 3.26 µM [falling, partial curve] | 
CC(c1ccccn1)N(C)C(=O)c1ccc2nc(Cc3cccc(Cl)c3)oc2c1 (stereo not drawn) | -26.1 |  | 
Cc1ccc(NC(=O)c2cccc(OC(F)F)c2)c(OC(F)F)c1 |  | 14.6 µM [rising, partial curve] | 
CC1CC(C)(C)Nc2ccc(OC(=O)c3ccco3)cc21 (stereo not drawn) | 2.43 | 25.9 µM [falling, single point] | 
CC1(c2ccc(Cl)cc2)NC(=O)N(CC(=O)NCc2ccc(F)cc2)C1=O (stereo not drawn) | 13.7 |  | 
CC1CCN(c2ccc3nnc(CCC(=O)NCc4ccco4)n3n2)CC1 | -15.3 | 18.4 µM [falling, single point] | 
N#CCCn1ncn(-c2ccccc2)c1=S | -11.5 | 0.58 µM [falling, full curve, poor fit] | 
Oc1cccc(C(O)CNCc2ccc(-c3ccccc3)cc2)c1 (stereo not drawn) | 1.24 |  | 
O=C(NCc1ccco1)c1ccccc1NC(=O)C1CC(=O)N(c2ccc(Cl)cc2)C1 (stereo not drawn) | 8.97 | 2.06 µM [rising, single point] | 
Cc1ccc(CNC(=O)CN(C)S(=O)(=O)c2cccs2)cc1 | -19 | 0.731 µM [falling, single point] | 
O=C(O)c1ccc(OC(F)(F)C(F)C(F)(F)F)cc1 (stereo not drawn) | -40.2 | 18.4 µM [falling, partial curve] | 2.06 µM [falling, full curve]
COc1ccc(NC(=O)Nc2cc(C)ccc2OC(F)F)c(OC)c1 |  | 0.13 µM [rising, full curve, poor fit] | 
CCOC(=O)C1=C(N)Oc2cc(O)ccc2C1c1ccc(C)cc1 (stereo not drawn) | -60.8 |  | 20.6 µM [falling, single point]
COc1ccc(CCN(C(=O)Cn2nnc3ccccc32)C(C(=O)NCC2CCCO2)c2ccncc2)cc1OC (stereo not drawn) | 17.6 |  | 
Cc1ccc2oc(-c3cccc(NC(=O)/C=C/c4cccc([N+](=O)[O-])c4)c3C)nc2c1 | 4.57 | 6.51 µM [falling, full curve, poor fit] | 
C=C(C)C1CC=C(C)/C(=N/NC(=O)c2ccoc2C)C1 (stereo not drawn) | 12 |  | 4.61 µM [falling, single point]
O=[N+]([O-])c1ccc(N=Nc2ncc[nH]2)cc1 | -49.6 | 16.4 µM [falling, partial curve] | 16.4 µM [falling, partial curve]
CC1CCN(c2ccc3nnc(CCC(=O)NCCCOC(C)C)n3n2)CC1 | 11.2 | 0.366 µM [rising, full curve, poor fit] | 
CCc1cc(=O)oc2cc(OCc3nn[nH]n3)ccc12 | 72.9 | 1.64 µM [rising, partial curve] | 1.46 µM [rising, full curve]
COC(=O)C1=CN(C(C)C)C=C(C(=O)OC)C1c1cc2c(cc1Br)OCO2 |  | 4.11 µM [rising, partial curve, poor fit] | 2.31 µM [rising, partial curve]
Cc1ccc(C)c(N(C(=O)CCC(=O)Nc2cc(C)on2)C(C(=O)NC2CCCC2)c2ccco2)c1 (stereo not drawn) | 11.7 |  | 1.3 µM [rising, partial curve]
COc1cccc(/C=C/C(=O)NCc2ccc3c(c2)OCO3)c1 | 24.3 |  | 
Nc1nc(SCC(=O)NCC2CCCO2)n[nH]1 (stereo not drawn) | 10.9 | 20.6 µM [rising, single point] | 
